The source of these data is article PMC10659539.

Sequences of proteins named here, by UniProt entry; tags and fusion partners are left off.
UniProt P43006: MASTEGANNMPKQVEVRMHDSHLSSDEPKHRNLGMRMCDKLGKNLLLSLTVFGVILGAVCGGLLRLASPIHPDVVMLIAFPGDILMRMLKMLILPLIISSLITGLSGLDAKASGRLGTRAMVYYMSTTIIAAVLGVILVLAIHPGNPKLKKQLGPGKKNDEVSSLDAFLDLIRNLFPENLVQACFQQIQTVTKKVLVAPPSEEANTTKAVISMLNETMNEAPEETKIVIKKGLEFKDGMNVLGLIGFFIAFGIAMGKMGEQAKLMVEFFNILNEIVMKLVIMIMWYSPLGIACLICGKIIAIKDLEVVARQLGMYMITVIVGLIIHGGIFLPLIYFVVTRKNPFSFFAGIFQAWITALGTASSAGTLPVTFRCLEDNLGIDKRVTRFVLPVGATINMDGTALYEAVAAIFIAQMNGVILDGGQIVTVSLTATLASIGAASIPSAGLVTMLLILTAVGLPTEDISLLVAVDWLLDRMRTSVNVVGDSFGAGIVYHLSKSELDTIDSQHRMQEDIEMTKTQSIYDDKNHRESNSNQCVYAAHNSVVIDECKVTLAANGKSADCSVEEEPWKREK

Test [1] has as its target GLT-1, endogenous in mouse brain (mouse (endogenous in mouse brain)) (UniProt P43006). Kind of test: co-IP; endogenous proteins from lysates of primary neurons and of mouse brain; which antibody precipitated is not given.
Test [2] addresses GLT-1, endogenous in primary neurons (UniProt P43006). The description is as above.

Results are given in words; binding and its absence hold for the method and conditions named. In cells and extracts the contact can be indirect. Some entries that bind do so weakly or less than the wild type.

With “PS2, endogenous in mouse brain (from UniProt Q61144 1-448)”, the binding entry in test [1] is on record as “binds”.

Regarding “PS2, endogenous in primary neurons (from UniProt Q61144 1-448)”, the binding result in test [2] was “binds”.
